± gives the standard deviation of the averaged measurements. The list shows a part of the results, in another mix than the full data.
Compound: Nc1ncnc2c1ncn2[C@@H]1O[C@H](COP(=O)(O)OP(=O)(O)OP(=O)(O)O)[C@@H](O)[C@H]1O [adenosine triphosphate]
Experiment: NP40-soluble protein abundance relative to vehicle (solubility fold change) (ratio); higher = more soluble protein in presence of ATP
Procedure, shortened: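 Values are fold changes against the detergent-processed vehicle, based on vsn-normalised intensities. Jurkat crude lysate was treated at eight concentrations from 0.1 to 10 mM (10 min at room temperature, then 3 min at 37 °C), solubilised with 0.8% NP40 and benzonase, ultracentrifuged and analysed by TMT-labelled LC-MS/MS over three independent experiments.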

Sequences of proteins named here, by UniProt entry; tags and fusion partners are left off. A change or cut given only in a name is not applied to a line headed by its entry.
UniProt P52747: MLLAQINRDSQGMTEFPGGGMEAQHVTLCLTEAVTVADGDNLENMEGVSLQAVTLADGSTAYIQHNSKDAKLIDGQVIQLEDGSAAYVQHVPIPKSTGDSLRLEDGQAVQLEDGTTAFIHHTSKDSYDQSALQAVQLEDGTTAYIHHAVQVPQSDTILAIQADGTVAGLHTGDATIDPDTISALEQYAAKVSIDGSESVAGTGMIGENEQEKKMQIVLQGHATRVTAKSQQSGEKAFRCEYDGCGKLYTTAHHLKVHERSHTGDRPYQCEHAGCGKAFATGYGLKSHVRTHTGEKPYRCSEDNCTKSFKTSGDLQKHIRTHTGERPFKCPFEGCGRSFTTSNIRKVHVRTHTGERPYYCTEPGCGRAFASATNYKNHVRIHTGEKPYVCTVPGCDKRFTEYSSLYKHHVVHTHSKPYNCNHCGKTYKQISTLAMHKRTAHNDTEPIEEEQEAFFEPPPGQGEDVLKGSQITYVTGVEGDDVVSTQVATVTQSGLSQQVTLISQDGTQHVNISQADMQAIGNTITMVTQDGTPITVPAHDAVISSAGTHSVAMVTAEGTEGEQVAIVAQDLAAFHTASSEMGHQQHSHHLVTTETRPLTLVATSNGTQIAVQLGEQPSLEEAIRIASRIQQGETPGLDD
UniProt Q8N4H5: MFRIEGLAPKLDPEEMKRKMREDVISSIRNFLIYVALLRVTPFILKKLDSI
UniProt E9PAV3, whole entry, looked up: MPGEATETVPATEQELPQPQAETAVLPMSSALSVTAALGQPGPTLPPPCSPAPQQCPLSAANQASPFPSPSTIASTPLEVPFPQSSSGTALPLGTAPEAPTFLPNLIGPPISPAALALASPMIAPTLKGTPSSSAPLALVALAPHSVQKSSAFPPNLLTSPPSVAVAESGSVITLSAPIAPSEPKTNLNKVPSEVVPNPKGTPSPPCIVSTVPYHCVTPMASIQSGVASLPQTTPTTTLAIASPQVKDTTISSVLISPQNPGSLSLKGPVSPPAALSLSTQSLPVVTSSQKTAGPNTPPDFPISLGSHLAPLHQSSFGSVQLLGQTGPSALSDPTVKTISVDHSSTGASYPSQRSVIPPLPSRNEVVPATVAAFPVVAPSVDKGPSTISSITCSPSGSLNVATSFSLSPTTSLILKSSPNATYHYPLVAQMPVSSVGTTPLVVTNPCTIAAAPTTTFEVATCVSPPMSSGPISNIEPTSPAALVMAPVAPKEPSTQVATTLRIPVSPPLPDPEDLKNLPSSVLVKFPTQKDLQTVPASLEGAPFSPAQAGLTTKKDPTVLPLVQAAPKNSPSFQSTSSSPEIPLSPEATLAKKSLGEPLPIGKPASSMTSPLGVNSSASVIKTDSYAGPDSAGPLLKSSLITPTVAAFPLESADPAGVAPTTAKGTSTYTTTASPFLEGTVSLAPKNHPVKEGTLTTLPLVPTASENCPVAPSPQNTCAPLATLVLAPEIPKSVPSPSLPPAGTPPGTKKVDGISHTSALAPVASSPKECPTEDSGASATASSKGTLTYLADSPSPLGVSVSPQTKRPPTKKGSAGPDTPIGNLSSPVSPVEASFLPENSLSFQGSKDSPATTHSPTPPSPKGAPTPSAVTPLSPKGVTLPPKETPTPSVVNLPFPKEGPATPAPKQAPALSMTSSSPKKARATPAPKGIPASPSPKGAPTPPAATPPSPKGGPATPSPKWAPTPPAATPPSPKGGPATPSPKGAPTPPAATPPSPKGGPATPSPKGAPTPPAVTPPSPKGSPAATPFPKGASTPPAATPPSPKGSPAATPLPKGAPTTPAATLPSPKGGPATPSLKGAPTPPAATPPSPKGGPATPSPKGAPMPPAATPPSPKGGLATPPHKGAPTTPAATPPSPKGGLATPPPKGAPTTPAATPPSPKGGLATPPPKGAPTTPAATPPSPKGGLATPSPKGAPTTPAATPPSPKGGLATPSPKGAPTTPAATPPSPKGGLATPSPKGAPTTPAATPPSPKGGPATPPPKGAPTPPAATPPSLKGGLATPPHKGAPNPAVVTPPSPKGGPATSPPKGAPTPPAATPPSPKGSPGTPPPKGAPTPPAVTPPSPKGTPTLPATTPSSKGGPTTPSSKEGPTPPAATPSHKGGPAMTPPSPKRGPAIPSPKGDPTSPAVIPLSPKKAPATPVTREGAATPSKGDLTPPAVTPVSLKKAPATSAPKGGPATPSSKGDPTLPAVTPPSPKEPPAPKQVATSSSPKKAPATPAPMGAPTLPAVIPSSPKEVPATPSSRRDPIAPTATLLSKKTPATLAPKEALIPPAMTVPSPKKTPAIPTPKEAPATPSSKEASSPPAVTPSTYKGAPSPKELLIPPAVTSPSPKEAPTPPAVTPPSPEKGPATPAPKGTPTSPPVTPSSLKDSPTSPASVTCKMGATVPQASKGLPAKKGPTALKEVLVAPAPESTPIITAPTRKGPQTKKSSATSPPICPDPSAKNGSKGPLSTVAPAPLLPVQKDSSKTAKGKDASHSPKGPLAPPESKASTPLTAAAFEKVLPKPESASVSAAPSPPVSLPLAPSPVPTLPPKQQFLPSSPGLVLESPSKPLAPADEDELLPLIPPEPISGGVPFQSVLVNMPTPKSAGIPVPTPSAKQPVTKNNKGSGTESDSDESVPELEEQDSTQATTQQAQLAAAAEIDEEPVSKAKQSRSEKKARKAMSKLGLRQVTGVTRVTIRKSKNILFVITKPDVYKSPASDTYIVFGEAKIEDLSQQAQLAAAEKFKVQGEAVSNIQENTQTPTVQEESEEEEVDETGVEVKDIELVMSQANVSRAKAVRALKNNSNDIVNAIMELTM
UniProt Q06609, whole entry: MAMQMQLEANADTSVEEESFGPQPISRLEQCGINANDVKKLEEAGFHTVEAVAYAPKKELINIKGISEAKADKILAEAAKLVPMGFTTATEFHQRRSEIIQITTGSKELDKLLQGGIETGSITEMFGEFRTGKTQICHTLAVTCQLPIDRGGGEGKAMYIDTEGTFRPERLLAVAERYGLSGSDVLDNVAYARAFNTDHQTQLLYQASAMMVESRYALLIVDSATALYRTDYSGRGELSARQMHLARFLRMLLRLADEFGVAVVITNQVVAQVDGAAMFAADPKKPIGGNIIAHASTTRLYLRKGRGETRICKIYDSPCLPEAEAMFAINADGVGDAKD
UniProt P62820, whole entry: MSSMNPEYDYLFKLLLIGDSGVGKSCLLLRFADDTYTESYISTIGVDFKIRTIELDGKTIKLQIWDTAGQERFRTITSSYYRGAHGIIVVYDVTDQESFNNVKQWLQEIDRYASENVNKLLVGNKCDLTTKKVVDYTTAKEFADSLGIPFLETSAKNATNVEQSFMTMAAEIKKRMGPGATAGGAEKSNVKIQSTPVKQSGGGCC
UniProt Q9HCU9: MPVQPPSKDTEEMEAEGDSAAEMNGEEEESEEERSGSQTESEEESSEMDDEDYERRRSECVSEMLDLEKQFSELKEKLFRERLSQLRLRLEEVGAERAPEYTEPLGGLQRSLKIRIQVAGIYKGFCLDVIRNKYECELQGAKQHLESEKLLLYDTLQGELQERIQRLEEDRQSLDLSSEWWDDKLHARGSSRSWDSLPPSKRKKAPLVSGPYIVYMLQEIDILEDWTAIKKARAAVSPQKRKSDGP
UniProt Q16637, whole entry: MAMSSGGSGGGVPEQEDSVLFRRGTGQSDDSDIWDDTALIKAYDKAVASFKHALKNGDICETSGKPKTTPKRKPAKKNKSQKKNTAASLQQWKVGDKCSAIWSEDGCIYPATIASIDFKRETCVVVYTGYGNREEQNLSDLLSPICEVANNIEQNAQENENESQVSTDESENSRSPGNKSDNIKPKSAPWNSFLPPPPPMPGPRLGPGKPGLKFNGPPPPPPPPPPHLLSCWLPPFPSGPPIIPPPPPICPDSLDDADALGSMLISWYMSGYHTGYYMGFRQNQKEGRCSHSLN
UniProt Q99571: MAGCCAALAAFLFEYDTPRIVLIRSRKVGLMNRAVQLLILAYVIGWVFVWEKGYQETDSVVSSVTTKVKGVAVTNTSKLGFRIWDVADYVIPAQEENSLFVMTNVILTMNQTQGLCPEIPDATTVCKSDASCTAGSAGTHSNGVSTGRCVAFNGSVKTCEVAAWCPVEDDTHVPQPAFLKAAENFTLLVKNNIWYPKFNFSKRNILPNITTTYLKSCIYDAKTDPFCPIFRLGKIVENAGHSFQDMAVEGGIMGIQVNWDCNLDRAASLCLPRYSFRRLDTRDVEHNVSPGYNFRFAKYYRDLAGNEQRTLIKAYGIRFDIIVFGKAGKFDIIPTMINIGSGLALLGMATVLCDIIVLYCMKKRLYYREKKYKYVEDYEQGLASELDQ
UniProt Q9GZM5: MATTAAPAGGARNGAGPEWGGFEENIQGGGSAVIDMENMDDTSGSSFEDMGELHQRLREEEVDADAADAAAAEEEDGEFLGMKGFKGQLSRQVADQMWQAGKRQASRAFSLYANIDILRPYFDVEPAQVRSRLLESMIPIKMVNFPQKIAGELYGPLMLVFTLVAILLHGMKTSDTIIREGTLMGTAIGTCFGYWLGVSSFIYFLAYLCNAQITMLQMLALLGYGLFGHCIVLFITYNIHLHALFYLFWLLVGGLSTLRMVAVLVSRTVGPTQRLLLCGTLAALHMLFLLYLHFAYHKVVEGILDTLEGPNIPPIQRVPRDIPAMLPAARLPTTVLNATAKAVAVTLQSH
UniProt Q5H9R7: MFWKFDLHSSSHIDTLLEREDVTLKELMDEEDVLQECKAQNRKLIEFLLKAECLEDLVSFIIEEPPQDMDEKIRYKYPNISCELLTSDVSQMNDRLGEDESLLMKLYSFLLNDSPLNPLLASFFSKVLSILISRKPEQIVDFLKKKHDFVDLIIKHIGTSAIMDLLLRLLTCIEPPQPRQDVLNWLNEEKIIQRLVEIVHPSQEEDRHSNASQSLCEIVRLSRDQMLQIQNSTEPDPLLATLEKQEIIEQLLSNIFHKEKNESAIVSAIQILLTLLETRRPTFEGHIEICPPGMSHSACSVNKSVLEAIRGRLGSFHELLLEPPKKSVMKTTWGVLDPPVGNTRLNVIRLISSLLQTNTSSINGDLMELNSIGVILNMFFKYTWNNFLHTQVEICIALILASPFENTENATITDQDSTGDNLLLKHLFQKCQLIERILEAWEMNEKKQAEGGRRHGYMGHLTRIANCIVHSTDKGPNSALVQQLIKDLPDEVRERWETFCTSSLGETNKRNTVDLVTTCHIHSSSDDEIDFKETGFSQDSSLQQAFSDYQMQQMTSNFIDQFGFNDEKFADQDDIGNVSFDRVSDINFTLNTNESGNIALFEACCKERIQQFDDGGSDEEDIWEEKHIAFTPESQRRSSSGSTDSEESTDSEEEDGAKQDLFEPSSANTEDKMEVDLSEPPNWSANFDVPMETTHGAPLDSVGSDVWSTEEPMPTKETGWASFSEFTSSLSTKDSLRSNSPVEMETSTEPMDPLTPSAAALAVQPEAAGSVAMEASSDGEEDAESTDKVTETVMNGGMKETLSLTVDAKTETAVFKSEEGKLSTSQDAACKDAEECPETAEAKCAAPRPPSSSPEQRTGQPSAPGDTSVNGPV
UniProt P11142, whole entry, looked up: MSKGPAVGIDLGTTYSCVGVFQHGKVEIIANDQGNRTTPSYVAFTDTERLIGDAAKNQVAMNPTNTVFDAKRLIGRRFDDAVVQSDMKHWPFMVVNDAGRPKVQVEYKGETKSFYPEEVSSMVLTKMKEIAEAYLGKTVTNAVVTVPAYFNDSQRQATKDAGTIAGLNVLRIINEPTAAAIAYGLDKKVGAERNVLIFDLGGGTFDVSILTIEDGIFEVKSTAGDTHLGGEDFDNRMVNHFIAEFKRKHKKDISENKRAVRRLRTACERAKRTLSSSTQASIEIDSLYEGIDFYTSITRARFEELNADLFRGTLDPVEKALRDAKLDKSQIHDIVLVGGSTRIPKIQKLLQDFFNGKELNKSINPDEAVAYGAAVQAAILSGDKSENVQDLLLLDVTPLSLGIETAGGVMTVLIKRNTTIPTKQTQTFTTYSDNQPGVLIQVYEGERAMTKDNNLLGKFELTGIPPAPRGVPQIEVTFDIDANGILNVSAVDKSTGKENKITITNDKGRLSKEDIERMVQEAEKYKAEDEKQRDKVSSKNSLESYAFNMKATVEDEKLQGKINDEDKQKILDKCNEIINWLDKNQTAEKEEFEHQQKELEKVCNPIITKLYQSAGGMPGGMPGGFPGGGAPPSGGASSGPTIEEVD
UniProt Q9UK99: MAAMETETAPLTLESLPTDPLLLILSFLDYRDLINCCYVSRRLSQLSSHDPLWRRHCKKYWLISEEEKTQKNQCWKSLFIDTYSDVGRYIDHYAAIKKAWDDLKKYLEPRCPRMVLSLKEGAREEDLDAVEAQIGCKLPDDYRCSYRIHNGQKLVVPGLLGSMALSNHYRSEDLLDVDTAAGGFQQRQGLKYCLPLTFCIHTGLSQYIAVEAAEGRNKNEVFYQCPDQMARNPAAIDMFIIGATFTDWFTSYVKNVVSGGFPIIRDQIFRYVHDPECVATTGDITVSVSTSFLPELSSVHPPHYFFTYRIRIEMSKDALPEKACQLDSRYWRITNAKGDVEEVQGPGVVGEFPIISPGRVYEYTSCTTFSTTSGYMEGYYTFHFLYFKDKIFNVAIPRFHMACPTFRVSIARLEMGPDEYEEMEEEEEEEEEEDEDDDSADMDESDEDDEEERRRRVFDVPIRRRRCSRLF

Target	NP40-soluble protein abundance (concentration: 1mM)	NP40-soluble protein abundance (concentration: 2mM)	NP40-soluble protein abundance (concentration: 4mM)	NP40-soluble protein abundance (concentration: 6mM)	NP40-soluble protein abundance (concentration: 8mM)	NP40-soluble protein abundance (concentration: 10mM)
F8W6N3 and related entries (UniProt Q92560)	1.04 ± 0.017	1.04 ± 0.071	1.08 ± 0.044	1.08 ± 0.095	1.1 ± 0.046	1.11 ± 0.077
F5H365 and related entries (UniProt Q15436)	1.05 ± 0.13	1.02 ± 0.077	1.03 ± 0.055	0.961 ± 0.092	0.987 ± 0.04	1.01 ± 0.047
E7EN86 and related entries (UniProt P52747)	0.981 ± 0.032	0.996 ± 0.038	0.96 ± 0.042	0.984 ± 0.032	0.944 ± 0.059	0.981 ± 0.016
F8W8Z9 and related entries (UniProt Q8N4H5)	0.865 ± 0.061	0.806 ± 0.066	0.831 ± 0.1	0.755 ± 0.086	0.778 ± 0.062	0.756 ± 0.081
E9PAV3-2|E9PAV3 and related entries (UniProt Q13765+H0YHX9+F8VZJ2+E9PAV3)	0.994 ± 0.073	1.11 ± 0.023	1.12 ± 0.032	1.1 ± 0.089	1.119 ± 0.0068	1.18 ± 0.02
E9PI54 and related entries (UniProt Q06609)	1.04 ± 0.043	1.08 ± 0.039	1.03 ± 0.034	1.06 ± 0.092	1.02 ± 0.028	1.02 ± 0.04
E7EVA8 and related entries (UniProt Q9BY41)	1.1 ± 0.053	1.02 ± 0.063	1.01 ± 0.076	1 ± 0.14	1.07 ± 0.055	1.04 ± 0.12
E7END7 and related entries (UniProt P62820)	0.99 ± 0.058	0.988 ± 0.02	0.956 ± 0.032	1 ± 0.032	0.932 ± 0.022	0.953 ± 0.033
E5RK69 and related entries (UniProt P08133)	0.955 ± 0.042	0.937 ± 0.036	0.904 ± 0.03	0.919 ± 0.064	0.919 ± 0.033	0.917 ± 0.057
E9PJF5 and related entries (UniProt Q9HCU9)	0.993 ± 0.11	1.07 ± 0.14	1.04 ± 0.14	1.05 ± 0.17	1.02 ± 0.14	1.05 ± 0.099
E5RFU2 and related entries (UniProt P34913)	0.952 ± 0.043	0.9392 ± 0.0089	0.971 ± 0.011	0.961 ± 0.06	0.9598 ± 0.0024	0.94 ± 0.036
F2Z3D9 and related entries (UniProt O43709)	1.034 ± 0.0096	1.06 ± 0.036	1.14 ± 0.055	1.07 ± 0.057	1.16 ± 0.047	1.22 ± 0.033
F2Z2I2 and related entries (UniProt Q16875)	1.02 ± 0.077	0.964 ± 0.076	0.976 ± 0.068	0.949 ± 0.11	0.981 ± 0.07	0.966 ± 0.032
E7EQZ4 and related entries (UniProt Q16637)	0.924 ± 0.038	0.959 ± 0.12	0.923 ± 0.14	0.978 ± 0.24	0.96 ± 0.18	0.994 ± 0.12
E7ESA6 and related entries (UniProt Q05397)	1.11 ± 0.25	1.18 ± 0.17	1.15 ± 0.22	1.02 ± 0.12	1.15 ± 0.23	1.05 ± 0.15
E9PDP5 and related entries (UniProt Q8IWZ3)	0.965 ± 0.088	0.971 ± 0.062	0.986 ± 0.047	0.998 ± 0.058	0.949 ± 0.034	0.967 ± 0.028
F8VV56 and related entries (UniProt P08962)	0.886 ± 0.036	0.895 ± 0.013	0.928 ± 0.015	0.939 ± 0.029	0.93 ± 0.028	0.824 ± 0.078
F6T1Q0 and related entries (UniProt Q6L8Q7)	1.05 ± 0.063	1.03 ± 0.08	1.03 ± 0.066	1.01 ± 0.11	1.04 ± 0.073	1.01 ± 0.054
E9PC69 and related entries (UniProt Q7KZI7)	1.2 ± 0.099	1.24 ± 0.13	1.24 ± 0.12	1.19 ± 0.11	1.24 ± 0.11	1.21 ± 0.11
F6SFZ6 and related entries (UniProt Q99571)	0.982 ± 0.2	0.953 ± 0.052	1.01 ± 0.17	0.945 ± 0.09	0.913 ± 0.052	0.917 ± 0.073
E9PS00 and related entries (UniProt Q9Y5Q0)	0.96657 ± 0.00075	1.11 ± 0.019	1.13 ± 0.067	1.126 ± 0.0045	1.03 ± 0.11	1.13 ± 0.046
D6RIF6 and related entries (UniProt Q9P270)	0.956 ± 0.052	1.012 ± 0.007	1.12 ± 0.12	1.13 ± 0.051	1.03 ± 0.038	1.11 ± 0.089
E7EQR8 and related entries (UniProt Q9GZM5)	0.981 ± 0.085	1.03 ± 0.05	1.01 ± 0.041	1.07 ± 0.072	1.02 ± 0.04	1.01 ± 0.013
F2Z388 and related entries (UniProt P42766)	0.973 ± 0.051	0.991 ± 0.035	1.02 ± 0.039	0.966 ± 0.068	0.644 ± 0.3	1.067 ± 0.0039
E7EUU4 and related entries (UniProt Q04637)	1.09 ± 0.046	1.1 ± 0.014	1.11 ± 0.031	1.13 ± 0.028	1.126 ± 0.0077	1.142 ± 0.0076
F8W8I6 and related entries (UniProt P31483)	0.982 ± 0.018	0.985 ± 0.0099	0.964 ± 0.015	0.99 ± 0.039	0.955 ± 0.0095	0.947 ± 0.016
E9PKF6 and related entries (UniProt Q5H9R7)	0.964 ± 0.032	0.96 ± 0.035	0.942 ± 0.043	0.955 ± 0.038	0.945 ± 0.057	0.943 ± 0.036
F6UZG9 and related entries (UniProt Q8NFZ0)	1.05 ± 0.24	0.941 ± 0.14	0.962 ± 0.12	0.922 ± 0.14	1.01 ± 0.094	0.922 ± 0.094

In another format: results already given.
Target,NP40-soluble protein abundance (concentration: 1mM),NP40-soluble protein abundance (concentration: 2mM),NP40-soluble protein abundance (concentration: 4mM),NP40-soluble protein abundance (concentration: 6mM),NP40-soluble protein abundance (concentration: 8mM),NP40-soluble protein abundance (concentration: 10mM)
E5RFU2 and related entries (UniProt P34913),0.952 ± 0.043,0.9392 ± 0.0089,0.971 ± 0.011,0.961 ± 0.06,0.9598 ± 0.0024,0.94 ± 0.036
F2Z3D9 and related entries (UniProt O43709),1.034 ± 0.0096,1.06 ± 0.036,1.14 ± 0.055,1.07 ± 0.057,1.16 ± 0.047,1.22 ± 0.033
F2Z2I2 and related entries (UniProt Q16875),1.02 ± 0.077,0.964 ± 0.076,0.976 ± 0.068,0.949 ± 0.11,0.981 ± 0.07,0.966 ± 0.032
E7EQZ4 and related entries (UniProt Q16637),0.924 ± 0.038,0.959 ± 0.12,0.923 ± 0.14,0.978 ± 0.24,0.96 ± 0.18,0.994 ± 0.12
E7ESA6 and related entries (UniProt Q05397),1.11 ± 0.25,1.18 ± 0.17,1.15 ± 0.22,1.02 ± 0.12,1.15 ± 0.23,1.05 ± 0.15
E9PDP5 and related entries (UniProt Q8IWZ3),0.965 ± 0.088,0.971 ± 0.062,0.986 ± 0.047,0.998 ± 0.058,0.949 ± 0.034,0.967 ± 0.028
F8VV56 and related entries (UniProt P08962),0.886 ± 0.036,0.895 ± 0.013,0.928 ± 0.015,0.939 ± 0.029,0.93 ± 0.028,0.824 ± 0.078
F6T1Q0 and related entries (UniProt Q6L8Q7),1.05 ± 0.063,1.03 ± 0.08,1.03 ± 0.066,1.01 ± 0.11,1.04 ± 0.073,1.01 ± 0.054
E9PC69 and related entries (UniProt Q7KZI7),1.2 ± 0.099,1.24 ± 0.13,1.24 ± 0.12,1.19 ± 0.11,1.24 ± 0.11,1.21 ± 0.11
F6SFZ6 and related entries (UniProt Q99571),0.982 ± 0.2,0.953 ± 0.052,1.01 ± 0.17,0.945 ± 0.09,0.913 ± 0.052,0.917 ± 0.073
E9PS00 and related entries (UniProt Q9Y5Q0),0.96657 ± 0.00075,1.11 ± 0.019,1.13 ± 0.067,1.126 ± 0.0045,1.03 ± 0.11,1.13 ± 0.046
D6RIF6 and related entries (UniProt Q9P270),0.956 ± 0.052,1.012 ± 0.007,1.12 ± 0.12,1.13 ± 0.051,1.03 ± 0.038,1.11 ± 0.089

Continued:

Target	NP40-soluble protein abundance (concentration: 1mM)	NP40-soluble protein abundance (concentration: 2mM)	NP40-soluble protein abundance (concentration: 4mM)	NP40-soluble protein abundance (concentration: 6mM)	NP40-soluble protein abundance (concentration: 8mM)	NP40-soluble protein abundance (concentration: 10mM)
G3V3H3 and related entries (UniProt Q07866)	0.9516 ± 0.0045	0.947 ± 0.034	0.917 ± 0.042	0.971 ± 0.032	0.91 ± 0.049	0.913 ± 0.049
F8VRH0 and related entries (UniProt Q15366)	0.981 ± 0.024	1.019 ± 0.0031	0.979 ± 0.023	0.992 ± 0.026	0.95 ± 0.037	0.954 ± 0.036
F8W8G5 and related entries (UniProt P10242)	1.11 ± 0.034	1.1 ± 0.038	1.15 ± 0.062	1.15 ± 0.061	1.19 ± 0.096	1.21 ± 0.093
UniProt G3V599	0.965 ± 0.034	0.934 ± 0.039	0.946 ± 0.037	0.981 ± 0.056	0.97 ± 0.046	0.936 ± 0.054
F8VQZ7 and related entries (UniProt P50579)	0.989 ± 0.028	0.997 ± 0.023	1.03 ± 0.03	1.01 ± 0.016	1.02 ± 0.014	1.02 ± 0.011
F8WEA6 and related entries (UniProt O75439)	0.972 ± 0.048	0.989 ± 0.038	0.963 ± 0.05	0.983 ± 0.085	0.968 ± 0.062	0.957 ± 0.067
E9PFW2 and related entries (UniProt O00462)	1.02 ± 0.1	1.05 ± 0.12	1.04 ± 0.095	0.911 ± 0.1	0.991 ± 0.1	0.975 ± 0.063
E9PRF4 and related entries (UniProt Q15047)	1.01 ± 0.051	1.02 ± 0.057	0.99 ± 0.052	1.01 ± 0.064	0.974 ± 0.06	1.01 ± 0.077
F5H5I6 and related entries (UniProt Q12849)	0.99 ± 0.028	0.994 ± 0.0096	0.994 ± 0.013	1.01 ± 0.028	0.97 ± 0.023	0.961 ± 0.011
G5E9C0 and related entries (UniProt Q9HB58)	1.11 ± 0.11	1.11 ± 0.13	1.14 ± 0.16	1.23 ± 0.17	1.28 ± 0.14	1.36 ± 0.12
E5RHW4 and related entries (UniProt O94905)	1.02 ± 0.083	0.943 ± 0.073	0.913 ± 0.086	0.997 ± 0.26	0.927 ± 0.15	0.941 ± 0.11
E9PSH8 and related entries (UniProt P07766)	1.01 ± 0.044	1 ± 0.017	0.939 ± 0.022	0.995 ± 0.013	0.977 ± 0.036	0.976 ± 0.021
F6XUP2 and related entries (UniProt O43861)	0.999 ± 0.019	0.983 ± 0.1	1.02 ± 0.14	1.03 ± 0.084	1.01 ± 0.11	0.915 ± 0.15
F5GXF9 and related entries (UniProt P51825)	1.03 ± 0.18	1.09 ± 0.18	1.19 ± 0.1	1.16 ± 0.21	1.03 ± 0.19	1.22 ± 0.078
E9PN89 and related entries (UniProt P11142)	0.946 ± 0.074	0.991 ± 0.032	0.889 ± 0.053	1.01 ± 0.017	0.919 ± 0.032	0.907 ± 0.033
F8VXG7 and related entries (UniProt Q99590)	1.26 ± 0.13	1.3 ± 0.065	1.32 ± 0.087	1.39 ± 0.075	1.32 ± 0.049	1.34 ± 0.029
E7EQT4 and related entries (UniProt Q9UKV3)	1.03 ± 0.079	1.01 ± 0.072	0.999 ± 0.076	1.04 ± 0.11	0.946 ± 0.072	1.01 ± 0.062
F8W1T6 and related entries (UniProt Q15434)	0.843 ± 0.082	0.846 ± 0.089	0.881 ± 0.043	0.904 ± 0.059	0.876 ± 0.089	0.929 ± 0.084
G3V4T2 and related entries (UniProt Q86U42)	0.964 ± 0.073	0.963 ± 0.035	0.97 ± 0.03	1.03 ± 0.072	0.994 ± 0.019	0.993 ± 0.014
F2Z2X0 and related entries (UniProt O00746)	1.05 ± 0.024	1.11 ± 0.034	1.08 ± 0.04	1.05 ± 0.084	1.08 ± 0.045	1.1 ± 0.029
E7ERK9 and related entries (UniProt Q9UI10)	0.971 ± 0.054	0.991 ± 0.033	1 ± 0.032	0.943 ± 0.031	1.02 ± 0.035	1.05 ± 0.048
E9PS74 and related entries (UniProt Q8NBI5)	0.974 ± 0.043	0.999 ± 0.046	0.959 ± 0.046	0.969 ± 0.036	0.978 ± 0.076	1.01 ± 0.044
E9PNT2 and related entries (UniProt Q6ZUM4)	0.986 ± 0.021	0.993 ± 0.025	0.993 ± 0.021	1 ± 0.06	1.03 ± 0.028	1.01 ± 0.045
E7EU96 and related entries (UniProt P68400)	1.06 ± 0.079	1.03 ± 0.062	1.04 ± 0.057	1.01 ± 0.082	1.11 ± 0.091	1.06 ± 0.048
E5RJD8 and related entries (UniProt O75347)	0.887 ± 0.12	0.897 ± 0.088	0.845 ± 0.085	0.99 ± 0.1	0.814 ± 0.053	0.831 ± 0.06
E9PJM3 and related entries (UniProt Q9UK99)	1.05 ± 0.068	1.05 ± 0.12	1.05 ± 0.052	1.01 ± 0.11	1.02 ± 0.053	0.993 ± 0.074
E7ERS3 and related entries (UniProt Q86VM9)	1.07 ± 0.12	1.12 ± 0.12	1.16 ± 0.16	1.3 ± 0.19	1.21 ± 0.14	1.26 ± 0.13
